# The other results are listed elsewhere or left out.
# Molecular target: T1, OsSMF1 (Oryza sativa, UniProt Q6ZLB0 1-436)
# T1 sequence: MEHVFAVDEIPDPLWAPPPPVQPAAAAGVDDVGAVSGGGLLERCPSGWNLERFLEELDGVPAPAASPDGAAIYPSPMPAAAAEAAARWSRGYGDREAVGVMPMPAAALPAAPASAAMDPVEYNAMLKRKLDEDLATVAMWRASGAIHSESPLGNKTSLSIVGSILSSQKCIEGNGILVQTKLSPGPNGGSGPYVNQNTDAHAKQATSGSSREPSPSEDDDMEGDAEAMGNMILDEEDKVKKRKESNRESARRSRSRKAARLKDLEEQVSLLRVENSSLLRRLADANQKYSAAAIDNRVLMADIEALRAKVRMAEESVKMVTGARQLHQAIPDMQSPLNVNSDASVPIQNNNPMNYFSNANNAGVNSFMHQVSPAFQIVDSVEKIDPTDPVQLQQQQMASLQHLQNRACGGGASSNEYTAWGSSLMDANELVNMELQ
# Experiment: protein-binding microarray (RPBM); PBS, 2% BSA, 51.3 ng/ul salmon testes DNA, 50 uM zinc acetate, 200 nM TF, 25 C, 1 h; high values mean tight binding
# Settings: protein: recombinant; tags: N-terminal polyhistidine and DsRed monomer fusion (pET32a); chain copies: 2; label: CyDye5-dUTP incorporated in the synthesized complementary strand; 3' TTTTT single-stranded linker to array surface; dsDNA, one strand shown
# Method in brief: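 The binding signal is fluorescence intensity per feature, in arbitrary units, read on an Axon 4000B scanner. Polyhistidine- and DsRed-tagged transcription factors (N-terminal fusions) from E. coli BL21-CodonPlus were purified on Ni–NTA and applied at 200 nM for 1 h at 25 °C to a double-stranded, BSA-blocked custom Agilent array in buffer with 50 µM zinc acetate.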
row,Sequence,binding signal
1,AATTAGCTAGTCTACCATGCAAACACATCACGTTGCTGCCCGGAGTCACCTAGTGCAG,3750 fluorescence intensity (a.u.)
2,CAGGCTGCCCAGCTCTGACATGTCGTCCTCACTTGCCGCCCGGAGTCACCTAGTGCAG,5980 fluorescence intensity (a.u.)
3,GGCCATGTTGAATGACGCGTTGCTCTCCCTACTCTACGGACGGAGTCACCTAGTGCAG,49100 fluorescence intensity (a.u.)
4,AATCCTACATGCCAAATCACCTCATCTTATCTCATCTATTCGGAGTCACCTAGTGCAG,3430 fluorescence intensity (a.u.)
5,AAATTAGAACGATGTGACGGAAAAGTTAGAAGTTTGTGTGCGGAGTCACCTAGTGCAG,3200 fluorescence intensity (a.u.)
6,CTCCAGCTCTCGCCTCTCGCCTCGTCCTTGTTCGTCATCGCGGAGTCACCTAGTGCAG,6300 fluorescence intensity (a.u.)
7,TACTTTATCAAATCGCAATGTAACTATTGGTCACTCTATCCGGAGTCACCTAGTGCAG,3170 fluorescence intensity (a.u.)
8,CATTACCGACTGACTACTAAATTTCGAGTCCTATTGATATCGGAGTCACCTAGTGCAG,3160 fluorescence intensity (a.u.)
9,TGACTAAATCAATATATGATCATCCATTGCGTTGGCATCACGGAGTCACCTAGTGCAG,3700 fluorescence intensity (a.u.)
10,GGCAAATCGGTAATTGCCATGTCACAAGAGTGGCAAATAGCGGAGTCACCTAGTGCAG,8900 fluorescence intensity (a.u.)
11,CGCAGCCGCTGTCGTCGCGTCACCGTCTCCAAGCGCCTCTCGGAGTCACCTAGTGCAG,9390 fluorescence intensity (a.u.)
12,TCAGTCGTCATTCGTCAAGCTTAATGATGACAGGAAAATCCGGAGTCACCTAGTGCAG,3580 fluorescence intensity (a.u.)
13,ATCAAACTACACAGTGGCAAGTGCTCCTTCCAGCTATATACGGAGTCACCTAGTGCAG,3340 fluorescence intensity (a.u.)
14,GCCGTCGATCCAAGTCCACGCCGGCACGCCGGCGGCGGCTCGGAGTCACCTAGTGCAG,4480 fluorescence intensity (a.u.)
15,AAATTACCATTGTTTAGGTGTATATGTGGCAAGTTTGTTACGGAGTCACCTAGTGCAG,4160 fluorescence intensity (a.u.)
16,GGAGTTGGCCAGGTGCGCAGGCATGGTCTACGTCATCACACGGAGTCACCTAGTGCAG,4500 fluorescence intensity (a.u.)
17,AAGCTCCTTCTGTCCGCCGCGTGGCGTACATCCAAGCGGTCGGAGTCACCTAGTGCAG,5120 fluorescence intensity (a.u.)
18,AGCTACGATACATGATGTACGTGTCAGGATACAAATCCTTCGGAGTCACCTAGTGCAG,3270 fluorescence intensity (a.u.)
19,CACCGCAGATTTCTGGCCCCACATGTCAGCTTGGCGTGTCCGGAGTCACCTAGTGCAG,4320 fluorescence intensity (a.u.)
20,CCAGATCTAGGCAGAGATCCCAACCTGTCATCATCACGCTCGGAGTCACCTAGTGCAG,3140 fluorescence intensity (a.u.)
21,GCCCAGCCCAGCCCGCTCTTCGTTTCCTCTCTAGTGACTTCGGAGTCACCTAGTGCAG,25800 fluorescence intensity (a.u.)
22,CCTCATCACCATACTCAACCCAGTCACCCGCACCGTTCTCCGGAGTCACCTAGTGCAG,3900 fluorescence intensity (a.u.)
23,AGGGTGTAAATGTACGCTGAAAATATCGTCAGATGTGCGGCGGAGTCACCTAGTGCAG,4010 fluorescence intensity (a.u.)
24,ACACGTCCTAAACCGTGGGACCCACATACACGTCATGCCACGGAGTCACCTAGTGCAG,10900 fluorescence intensity (a.u.)
25,CACCTGTCACAGCCACTTGCCGGTGACGTCCGTTCGAAAGCGGAGTCACCTAGTGCAG,4520 fluorescence intensity (a.u.)
26,AAACTAGTACACCTAAGAAGTTGCCAAAAGAAACTAGTAGCGGAGTCACCTAGTGCAG,3200 fluorescence intensity (a.u.)
27,CTATCACCCGACGTGGATCCGTGCTGTTCAATTACAGAATCGGAGTCACCTAGTGCAG,5080 fluorescence intensity (a.u.)

row,Sequence,binding signal
1,AAGCATCTGATACTTTTGCTGTGCTGTTCTTTAATTTACCCGGAGTCACCTAGTGCAG,4350 fluorescence intensity (a.u.)
2,GTTTGAAGTTTGTGTGTGTAGGAAAGTTTTGATGTGATGGCGGAGTCACCTAGTGCAG,3830 fluorescence intensity (a.u.)
3,TCATGTGCTACTCGTTCTGCGTGAGTCGAAAATCTCTCTCCGGAGTCACCTAGTGCAG,25200 fluorescence intensity (a.u.)
4,CCCTCTGAGGTCAACCTGACAAGGAGTTGTGATCCTGTCTCGGAGTCACCTAGTGCAG,3640 fluorescence intensity (a.u.)
5,GCACGCCCTCGAGTTTCTCCTCCTCGTCGACGTCGACCTCCGGAGTCACCTAGTGCAG,4270 fluorescence intensity (a.u.)
6,TTTACAGTATTTGTTATTTAAGACCTGTCATAATCTTTATCGGAGTCACCTAGTGCAG,3380 fluorescence intensity (a.u.)
7,TATTTTGGTATGACCAAAATAGAATAGTTCGCTCTTATGACGGAGTCACCTAGTGCAG,30700 fluorescence intensity (a.u.)
8,AACCCGTTCGTGCAACGAGCATTAGGCTTATCGGATATATCGGAGTCACCTAGTGCAG,3700 fluorescence intensity (a.u.)
9,CGCCGCGGGAGGAGGCGTCACCTTGTCACGCTCCTCGCCTCGGAGTCACCTAGTGCAG,4180 fluorescence intensity (a.u.)
10,AGCAGCAACCACGTGTTTCATGAAATATATCGCGCGATGTCGGAGTCACCTAGTGCAG,3680 fluorescence intensity (a.u.)
11,CCGTCGAGTAGTAAACGGATGGACGGTCCAGATCACCCCGCGGAGTCACCTAGTGCAG,4130 fluorescence intensity (a.u.)
12,AGAGTTTCTTGTTCAATATTAGATGTGTGCAACGAAATGTCGGAGTCACCTAGTGCAG,15400 fluorescence intensity (a.u.)
13,TTAAATTTGGAGTTAAACAGGTCATACTCATGATCAACTACGGAGTCACCTAGTGCAG,3660 fluorescence intensity (a.u.)
14,ACGGAATGTGGAGAGGTGGGTGGGGCCTCGTGGAGATTCCCGGAGTCACCTAGTGCAG,7550 fluorescence intensity (a.u.)
15,GAATGTTATATTGCCATGTCACCAAATTTAACTTACATGCCGGAGTCACCTAGTGCAG,6290 fluorescence intensity (a.u.)
16,GTCATCCATGACTCGGACGCGTCACCTCCTCTGCCTCTATCGGAGTCACCTAGTGCAG,13500 fluorescence intensity (a.u.)
17,CGCTTTAAGATTCGTGCCGGGACACGTGTCATCATCCTACCGGAGTCACCTAGTGCAG,12600 fluorescence intensity (a.u.)
18,CCTCCTGCTGCTGCTGTTGTTGCGAGAGAGAGAGAGAGAGCGGAGTCACCTAGTGCAG,3250 fluorescence intensity (a.u.)
19,GTAGACGAAGACCTGGCAAGTCCTTGGGCTTAAATCTCACCGGAGTCACCTAGTGCAG,17800 fluorescence intensity (a.u.)
20,GCTCCCTTGTGTGACAACGCCGATCCTCACCTACACCTTCCGGAGTCACCTAGTGCAG,3930 fluorescence intensity (a.u.)
21,AGGGAATAAAAGTTTAATTTATAGGTAAACTTTATATATACGGAGTCACCTAGTGCAG,27400 fluorescence intensity (a.u.)
22,TGAGTTTGGGCGACACGCAAGCATGTATGTGTGGATATCACGGAGTCACCTAGTGCAG,5410 fluorescence intensity (a.u.)
23,ATCAGAATATACTCATATAGTCACGTGAGATCTTGTTACGCGGAGTCACCTAGTGCAG,3380 fluorescence intensity (a.u.)
24,CAGTTAGACAGAGACGTGCCACATTTATGCCACCGTTTGACGGAGTCACCTAGTGCAG,3160 fluorescence intensity (a.u.)
25,TAAAACAACATTTAACTTGCTATATTCAATTCATTCTTTTCGGAGTCACCTAGTGCAG,26100 fluorescence intensity (a.u.)
26,GGCCCGGAAAATTTCACGCCGCTGAACTGAACTGACGCGTCGGAGTCACCTAGTGCAG,3150 fluorescence intensity (a.u.)
27,TATATGGGCCTGAGTTGGCCCGGCAACGTGGGCCTTCTGCCGGAGTCACCTAGTGCAG,3200 fluorescence intensity (a.u.)

# Four entries from above in a different format:
row | Sequence | binding signal
1 | AATTAGCTAGTCTACCATGCAAACACATCACGTTGCTGCCCGGAGTCACCTAGTGCAG | 3750 fluorescence intensity (a.u.)
2 | CAGGCTGCCCAGCTCTGACATGTCGTCCTCACTTGCCGCCCGGAGTCACCTAGTGCAG | 5980 fluorescence intensity (a.u.)
3 | GGCCATGTTGAATGACGCGTTGCTCTCCCTACTCTACGGACGGAGTCACCTAGTGCAG | 49100 fluorescence intensity (a.u.)
4 | AATCCTACATGCCAAATCACCTCATCTTATCTCATCTATTCGGAGTCACCTAGTGCAG | 3430 fluorescence intensity (a.u.)

# — PMC7819943, “Rice protein-binding microarrays: a tool to detect cis-acting elements near promoter regions in rice”
